Results as given in paper PMC8599861, “Structures of prokaryotic ubiquitin-like protein Pup in complex with depupylase Dop reveal the mechanism of catalytic phosphate formation” (Nature Communications, 2021).
No constants are given. Whether binding was seen depends on the method and setting. Binding calls can cover weak binding; strength is not graded here.

Target: T1, Prokaryotic ubiquitin-like protein Pup from Corynebacterium glutamicum with C-terminal glutamate (Corynebacterium glutamicum) (UniProt Q8NQE0)
T1 sequence: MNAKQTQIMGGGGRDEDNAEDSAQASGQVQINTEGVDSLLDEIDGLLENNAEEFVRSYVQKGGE
Assay: ITC; 25 °C, MicroCal iTC200; 150 µM CgluDop or 200 µM CgluDopGS injected into 15 or 20 µM CgluPupE in the cell; 50 mM Tris-HCl pH 8.0, 300 mM NaCl, 20 mM MgCl2; 1:1 binding model; both purified

binding: binds
Substance: Depupylase Dop from Corynebacterium glutamicum, wild type (enzyme)
